Source: PubChem BioAssay AID504808 (Drosophila RNAi Screening Center, 2011)

Aim: 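Fly genes required to hold E2F transcription in check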 (primary screen)
Cells: Drosophila S2 cells
Reagent: long dsRNA against Drosophila genes
Read-out: 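Firefly luciferase driven by E2F sites, normalised to Renilla luciferase on the same minimal promoter, measured by plate reader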
Direction: E2F firefly: higher = more E2F reporter activity; Renilla normaliser: higher = more normaliser reporter signal
Call rule: 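Called active if the normalised E2F reporter went up by over 50%; the cutoff is arbitrary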
The deposit covers about 21,000 reagents; below is a random part of those that have a named target and a result. In the full data, 18 (0.084%) are marked active. 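Raw counts without plate normalisation, one of two replicates; the ratio scores behind the calls were not deposited.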 Names joined by + are all predicted targets of the reagent. Not given: the amount of reagent, the time to read-out.

For CG18171 [DRSC08524], what does the deposit list?
E2F firefly, rep 1: 96664; Renilla normaliser, rep 1: 4281; Call: inactive

With CG6108 (retired record) [DRSC02929], what does the deposit list?
E2F firefly, rep 1: 1.01e5; Renilla normaliser, rep 1: 4713; Call: inactive

Which result is listed for ppk24 (pickpocket 24) [DRSC15093]?
E2F firefly, rep 1: 1.16e5; Renilla normaliser, rep 1: 5681; Call: inactive

What is on record for Skadu [DRSC01490]?
E2F firefly, rep 1: 1.30e5; Renilla normaliser, rep 1: 6125; Call: inactive

What is on record for ReepB (Receptor expression enhancing protein B) [DRSC07150]?
E2F firefly, rep 1: 3173; Renilla normaliser, rep 1: 233; Call: inactive

For CG11699 [DRSC19419], what does the deposit list?
E2F firefly, rep 1: 1.39e5; Renilla normaliser, rep 1: 5708; Call: inactive

With CG10710 [DRSC09784], what does the deposit list?
E2F firefly, rep 1: 1.27e5; Renilla normaliser, rep 1: 7368; Call: inactive

With CG14810 [DRSC17693], what was measured?
E2F firefly, rep 1: 79888; Renilla normaliser, rep 1: 2575; Call: inactive

What did the screen give for CG14810 [DRSC17961]?
E2F firefly, rep 1: 1.10e5; Renilla normaliser, rep 1: 4848; Call: inactive

For Cyfip (Cytoplasmic FMR1 interacting protein) [DRSC15679], what was measured?
E2F firefly, rep 1: 84122; Renilla normaliser, rep 1: 3900; Call: inactive

Which result is listed for Cnot4 (CCR4-NOT transcription complex subunit 4) [DRSC02830]?
E2F firefly, rep 1: 1.64e5; Renilla normaliser, rep 1: 5931; Call: inactive

With Cnot4 (CCR4-NOT transcription complex subunit 4) [DRSC02831], what was measured?
E2F firefly, rep 1: 1.61e5; Renilla normaliser, rep 1: 5398; Call: inactive

Copied from the entries so far, 3 entries:
CG6108 (retired record) [DRSC02929]: E2F firefly, rep 1 = 1.01e5; Renilla normaliser, rep 1 = 4713; Call = inactive
ppk24 (pickpocket 24) [DRSC15093]: E2F firefly, rep 1 = 1.16e5; Renilla normaliser, rep 1 = 5681; Call = inactive
Skadu [DRSC01490]: E2F firefly, rep 1 = 1.30e5; Renilla normaliser, rep 1 = 6125; Call = inactive

Further entries follow.
With Trpm (Transient receptor potential cation channel, subfamily M) [DRSC06629], how do the results read?
E2F firefly, rep 1: 77993; Renilla normaliser, rep 1: 3580; Call: inactive

With Tsp42En (Tetraspanin 42En) [DRSC06185], what was measured?
E2F firefly, rep 1: 1.51e5; Renilla normaliser, rep 1: 5097; Call: inactive

For LysE (Lysozyme E) [DRSC08675], what does the deposit list?
E2F firefly, rep 1: 1.05e5; Renilla normaliser, rep 1: 4306; Call: inactive

How did the screen score CG6283 [DRSC16009]?
E2F firefly, rep 1: 1.02e5; Renilla normaliser, rep 1: 5603; Call: inactive

What did the screen give for lark [DRSC11362]?
E2F firefly, rep 1: 63678; Renilla normaliser, rep 1: 3477; Call: inactive

What is on record for dve (defective proventriculus) [DRSC04680]?
E2F firefly, rep 1: 99749; Renilla normaliser, rep 1: 4013; Call: inactive

How did the screen score UQCR-6.4 (Ubiquinol-cytochrome c reductase 6.4 kDa subunit) [DRSC06454]?
E2F firefly, rep 1: 1.38e5; Renilla normaliser, rep 1: 4867; Call: inactive

Which result is listed for Hr38 (Hormone receptor-like in 38) [DRSC03345]?
E2F firefly, rep 1: 93896; Renilla normaliser, rep 1: 3433; Call: inactive

What did the screen give for CG3679 [DRSC19346]?
E2F firefly, rep 1: 8160; Renilla normaliser, rep 1: 732; Call: inactive

For Cngl (Cyclic nucleotide-gated ion channel-like) [DRSC20318], what was measured?
E2F firefly, rep 1: 1.38e5; Renilla normaliser, rep 1: 5551; Call: inactive

What is on record for CG8850 [DRSC07287]?
E2F firefly, rep 1: 1.01e5; Renilla normaliser, rep 1: 4350; Call: inactive

What did the screen give for Sdhaf3 (Succinate dehydrogenase assembly factor 3) [DRSC15020]?
E2F firefly, rep 1: 94852; Renilla normaliser, rep 1: 4791; Call: inactive

With bel (belle) [DRSC16555], how do the results read?
E2F firefly, rep 1: 1.56e5; Renilla normaliser, rep 1: 7127; Call: inactive

For Psc (Posterior sex combs) [DRSC07518], what was measured?
E2F firefly, rep 1: 1.07e5; Renilla normaliser, rep 1: 4197; Call: inactive

What is on record for Ing5 (Inhibitor of growth family member 5) [DRSC03188]?
E2F firefly, rep 1: 84986; Renilla normaliser, rep 1: 3600; Call: inactive

What did the screen give for croc (crocodile) [DRSC11884]?
E2F firefly, rep 1: 1.29e5; Renilla normaliser, rep 1: 6852; Call: inactive

With CG11291 [DRSC04097], how do the results read?
E2F firefly, rep 1: 1.05e5; Renilla normaliser, rep 1: 4312; Call: inactive

Which result is listed for GCS2beta (Glucosidase 2 beta subunit) [DRSC02960]?
E2F firefly, rep 1: 52558; Renilla normaliser, rep 1: 3168; Call: inactive

With CG13123 [DRSC02219], what was measured?
E2F firefly, rep 1: 1.39e5; Renilla normaliser, rep 1: 5057; Call: inactive

What is on record for CG1598 [DRSC06598]?
E2F firefly, rep 1: 1.46e5; Renilla normaliser, rep 1: 4691; Call: inactive

For Nnf1a [DRSC06394], what was measured?
E2F firefly, rep 1: 91074; Renilla normaliser, rep 1: 4197; Call: inactive

What did the screen give for tho2 [DRSC00646]?
E2F firefly, rep 1: 86265; Renilla normaliser, rep 1: 3398; Call: inactive

With CG14042 + SP555 [DRSC02367], what was measured?
E2F firefly, rep 1: 1.35e5; Renilla normaliser, rep 1: 4291; Call: inactive

What did the screen give for CG14042 + SP555 [DRSC03428]?
E2F firefly, rep 1: 1.46e5; Renilla normaliser, rep 1: 5115; Call: inactive
